Values from PubChem BioAssay AID1224826 (NIAID, 2016).
Here is a random part of about 17,000 reagents. About 1,110 of all reagents (6.6%) were called active. 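Active means lowered or raised reporter signal; replicate intensities are raw and not normalised per plate.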 Entries without a mark were called inactive. Reagents against one gene are numbered here. Not all columns of the deposit are shown.

Test: 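Knock-downs that raise or lower Tnf reporter signal after endotoxin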 (primary screen)
Cells: RAW264.7 G9 macrophages from mouse bearing reporters for p65 (GFP) and the Tnf promoter (mCherry)
Reagents: siRNA pool against mouse genes, 100 nM
Timing: 16 h of LPS stimulation, after 2 days of siRNA transfection
Conditions: bacterial lipopolysaccharide (Salmonella minnesota R595), 10 ng/ml
Detection: 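Nuclear mCherry signal of the Tnf promoter reporter measured by imaging after background removal, scaled to each plate median and turned into robust z-scores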
Reading the numbers: Tnf reporter robust z-score: higher = stronger Tnf promoter reporter signal after LPS
Hit rule: 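a well counts as active at a score of -1.3 or below (Tlr4 knock-down control median) or above 3 (raised signal); controls and wells holding fewer than 50 cells are excluded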
Calls: active = Tnf reporter clearly lowered or raised; inactive = no clear change in Tnf reporter

What did the screen give for Slc17a4?
Tnf reporter robust z-score: -0.87; fewer than 50 cells in well: enough cells in well

With Gpkow (G patch domain and KOW motifs), what was measured?
Tnf reporter robust z-score: 1.01; fewer than 50 cells in well: enough cells in well

How did the screen score Ampd2 (adenosine monophosphate deaminase 2)?
Tnf reporter robust z-score: -0.29; fewer than 50 cells in well: enough cells in well

What did the screen give for Lin37 (lin-37 DREAM MuvB core complex component)?
Tnf reporter robust z-score: 2.03; fewer than 50 cells in well: enough cells in well

For Kpna3 (karyopherin subunit alpha 3), what does the deposit list?
Tnf reporter robust z-score: -0.89; fewer than 50 cells in well: enough cells in well

For Ugt1a6a (UDP glucuronosyltransferase 1 family, polypeptide A6A), how do the results read?
fewer than 50 cells in well: fewer than 50 cells per well; well left out of calls

With Zranb1 (zinc finger, RAN-binding domain containing 1), how do the results read?
fewer than 50 cells in well: fewer than 50 cells per well; well left out of calls

With Zfp709 (zinc finger protein 709), what does the deposit list?
Tnf reporter robust z-score: 0.46; fewer than 50 cells in well: enough cells in well

How did the screen score Hsd17b4 (hydroxysteroid (17-beta) dehydrogenase 4)?
Tnf reporter robust z-score: 0.55; fewer than 50 cells in well: enough cells in well

What did the screen give for Dido1 (death inducer-obliterator 1) #1?
Tnf reporter robust z-score: 2.56; fewer than 50 cells in well: enough cells in well

For Dido1 (death inducer-obliterator 1) #2, what does the deposit list?
Tnf reporter robust z-score: 0.39; fewer than 50 cells in well: enough cells in well

For Or8k27 (olfactory receptor family 8 subfamily K member 27), what does the deposit list?
Tnf reporter robust z-score: 0.84; fewer than 50 cells in well: enough cells in well

What did the screen give for Slco1a1?
Tnf reporter robust z-score: 0.73; fewer than 50 cells in well: enough cells in well

What did the screen give for Dpy19l3 (dpy-19 like C-mannosyltransferase 3)?
Tnf reporter robust z-score: 2.17; fewer than 50 cells in well: enough cells in well

With Arih2 (ariadne RBR E3 ubiquitin protein ligase 2), what was measured?
Tnf reporter robust z-score: -0.09; fewer than 50 cells in well: enough cells in well

With Mpst (mercaptopyruvate sulfurtransferase), how do the results read?
Tnf reporter robust z-score: 1.18; fewer than 50 cells in well: enough cells in well

For Cfh (complement component factor h), how do the results read?
Tnf reporter robust z-score: 0.1; fewer than 50 cells in well: enough cells in well

How did the screen score Pkp4 (plakophilin 4)?
Tnf reporter robust z-score: 0.4; fewer than 50 cells in well: enough cells in well

With Usp16 (ubiquitin specific peptidase 16), what was measured?
Tnf reporter robust z-score: -0.27; fewer than 50 cells in well: enough cells in well

Which result is listed for Dexi (dexamethasone-induced transcript)?
Tnf reporter robust z-score: 0.67; fewer than 50 cells in well: enough cells in well

With Il13ra1 (interleukin 13 receptor, alpha 1), how do the results read?
Tnf reporter robust z-score: 0.29; fewer than 50 cells in well: enough cells in well

Part of the list above in another layout:
gene symbol | pool no. | Tnf reporter robust z-score | fewer than 50 cells in well
Dido1 (death inducer-obliterator 1) | 2 | 0.39 | enough cells in well
Or8k27 (olfactory receptor family 8 subfamily K member 27) | 1 | 0.84 | enough cells in well
